Source: article PMC4757822, “Structural and biochemical characterization of an RNA/DNA binding motif in the N-terminal domain of RecQ4 helicases”
Changes are numbered by the printed parent chain. The comparison behind a weaker result is the experiment's own reference, which may not be listed here. Where a protein sequence is shown, tags need not be part of it. The exact form of at least one protein or probe is not confirmed. At least one verdict rests on a figure or table, not on a statement of the authors.

How the values were obtained:
Experiment in all cases: EMSA
Conditions in all cases: 20 mM Tris-HCl pH 7.5, 2 mM MgCl2, 50 mM NaCl, 5% glycerol, 1 mM DTT, 5 mM ZnCl2, 0.1 mg/ml BSA, 10 nM probe, 30 min room temperature; 6% native gel in TBE at 4 C; recombinant protein; residues 335-427; protein details: N-terminal 6His-GST (not cleaved); label: 5'-32P on one strand
hUpZnK m3 N406C (human) = molecular target: T1, hUpZnK m3 N406C (human) (UniProt O94761)
T1 sequence (looked up): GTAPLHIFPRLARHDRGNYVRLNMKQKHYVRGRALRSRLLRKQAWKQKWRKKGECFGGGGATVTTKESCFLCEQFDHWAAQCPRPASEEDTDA

[1] = molecular target: T2, hUpZnK m1 C403A,N406A (human) (UniProt O94761)
T2 sequence (looked up): T1 sequence (looked up) with C69A, C72A

[2] = molecular target: T3, hUpZnK m2 H411A,C416A (human) (UniProt O94761)
T3 sequence (looked up): T1 sequence (looked up) with C72N, H77A, C82A

GUAGUGCAUGUACACCACACUCUUUUUUUUUUUUUUU / UUUUUUUUUUUUUUUGAGUGUGGUGUACAUGCACUAC [forkRNA (A3+A4)]
binding result (hUpZnK m3 N406C (human)): binds | binding result [1]: binds | binding result [2]: binds

GTAGTGCATGTACACCACACTCTTTTTTTTTTTTTTT / TTTTTTTTTTTTTTTGAGTGTGGTGTACATGCACTAC [forkDNA (A1+A2)]
binding result (hUpZnK m3 N406C (human)): binds more weakly | binding result [1]: binds more weakly | binding result [2]: binds more weakly
